T/C and survivor count data for 24 compounds are collected here from PubChem BioAssay AID248 (DTP/NCI, 2004).

This experiment deals with L1210 leukemia ip in BDF1 mice, survival T/C. As to the kind of experiment: NCI In Vivo Anticancer Drug Screen. Data for tumor model L1210 Leukemia (intraperitoneal) in B6D2F1 (BDF1) mice. As to conditions: T/C endpoint: mean survival time, higher T/C = longer survival.
The mark [1] stands for this setting: dose: 100.0 mg/kg/injection, schedule: Q04DX002 (ip), vehicle: saline with Tween-80.
Setting [2] is: dose: 300.0 mg/kg/injection, schedule: Q01DX001 (ip), vehicle: saline.
[3] abbreviates: dose: 100.0 mg/kg/injection, schedule: Q01DX009 (ip), vehicle: Klucel (hydroxypropylcellulose) (HPC).
Setting [4] is: dose: 100.0 mg/kg/injection, schedule: Q04DX002 (ip), vehicle: Klucel (hydroxypropylcellulose) (HPC).
Setting [5] is: dose: 400.0 mg/kg/injection, schedule: Q01DX009 (ip), vehicle: Klucel (hydroxypropylcellulose) (HPC).

The list is a part of this screen's results and no random one: it is rich in T/C values a quarter to a half above the control, in often repeated tests (any T/C) and in doses without a T/C. Further doses and runs are listed elsewhere. T/C is the treated group as % of the vehicle group. Some entries give survivors of the animals treated and no T/C: the source holds a T/C of zero for them, seemingly a mark for toxic or unscored doses. Some doses without a T/C left all or most animals alive at the check, yet need not have been tolerated: the source hardly ever lists a survival T/C far under the control, and the zero likely stands for such cases as well. Counts of survivors are from the toxicity check (mostly the fifth day) where no day follows; animals may have died later. Schedule codes are those of the source, taken here to give the interval after Q, in days (D) or hours (H), and the number of doses after X. Some schedule codes hold Z or #, which are not explained here. Where survival is the endpoint, the PubChem record calls one and a half times the control and up active, and a quarter to a half above the control has no call in these data; cut-offs in other NCI protocols can differ. Some entries hold several experiments; the results are listed from low to high. Some T/C values are followed by the survivors on the day toxicity was checked, most often the fifth; without a count, all were alive then.

Regarding `NCCSCCc1ccccc1`, the T/C under setting [1] was 130 % of control. Moreover, the survivor count was 3 of 3 under setting [1]; 0 of 3 (dose: 200.0 mg/kg/injection, schedule: Q04DX002 (ip), vehicle: saline with Tween-80); 0 of 3 (dose: 400.0 mg/kg/injection, schedule: Q04DX002 (ip), vehicle: saline with Tween-80).
As to `CC1(C)CCC(NC(=O)N(CCF)N=O)CC1`, the T/C (dose: 20.0 mg/kg/injection, schedule: Q01DX001 (ip), vehicle: other) was 141 % of control. Also, the survivor count is recorded as 6 of 10 (dose: 112.0 mg/kg/injection, schedule: Q01DX001 (ip), vehicle: other) and 0 of 10 (dose: 168.0 mg/kg/injection, schedule: Q01DX001 (ip), vehicle: other).
Consider `C=C(C)c1ccc(C)c(C)c1`, for which the survivor count (dose: 100.0 mg/kg/injection, schedule: Q04DX003 (ip), vehicle: saline with Tween-80) is given as 6 of 6.
As for `O=C(Nc1ccc(NC(=O)Nc2cc(C3=NCCN3)cc(C3=NCCN3)c2)cc1)Nc1cc(C2=NCCN2)cc(C2=NCCN2)c1`, the survivor count (dose: 30.0 mg/kg/injection, schedule: Q01DX Z (ip), vehicle: saline) is listed as 6 of 6; the survivor count (dose: 60.0 mg/kg/injection, schedule: Q01DX Z (ip), vehicle: saline) is 3 of 6; the survivor count (dose: 120.0 mg/kg/injection, schedule: Q01DX Z (ip), vehicle: saline) is recorded as 0 of 6; the survivor count (dose: 240.0 mg/kg/injection, schedule: Q01DX Z (ip), vehicle: saline) is listed as 0 of 6.
As for `O=C(c1ccccc1)C1(c2ccccc2)CCP(c2ccccc2)(c2ccccc2)(c2ccccc2)O1` (stereo not given), the survivor count (dose: 75.0 mg/kg/injection, schedule: Q01DX001 (ip), vehicle: carboxymethylcellulose (CMC)) is recorded as 3 of 6; the survivor count (dose: 150.0 mg/kg/injection, schedule: Q01DX001 (ip), vehicle: carboxymethylcellulose (CMC)) is 3 of 6; the survivor count (dose: 300.0 mg/kg/injection, schedule: Q01DX001 (ip), vehicle: carboxymethylcellulose (CMC)) is reported as 0 of 6.
Regarding `COc1cc(OC)c(/C=C/c2cnc3ccccc3n2)c(OC)c1`, the survivor count by setting is: (dose: 12.5 mg/kg/injection, schedule: Q04DX002 (ip), vehicle: saline with Tween-80) 3 of 3; (dose: 25.0 mg/kg/injection, schedule: Q04DX002 (ip), vehicle: saline with Tween-80) 3 of 3.
`O=P(c1ccccc1)(c1ccccc1)C(Nc1ccc(Cl)cc1)c1ccco1` (stereo not given): the survivor count runs as follows: (dose: 100.0 mg/kg/injection, schedule: Q01DX009 (ip), vehicle: gum acacia) 6 of 6; (dose: 200.0 mg/kg/injection, schedule: Q01DX009 (ip), vehicle: gum acacia) 6 of 6.
With `CCCCN=C(NCCCC)c1ccc(NC(=O)c2ccc(C(=O)Nc3ccc(C(=NCCCC)NCCCC)cc3)cc2)cc1`, the survivor count (dose: 16.0 mg/kg/injection, schedule: Q01DX015 (ip), vehicle: methylcellulose (MC)) is 0 of 6; the survivor count (dose: 31.0 mg/kg/injection, schedule: Q01DX015 (ip), vehicle: methylcellulose (MC)) was 0 of 6; the survivor count (dose: 62.0 mg/kg/injection, schedule: Q01DX015 (ip), vehicle: methylcellulose (MC)) is given as 0 of 6; the survivor count (dose: 125.0 mg/kg/injection, schedule: Q01DX015 (ip), vehicle: methylcellulose (MC)) is listed as 0 of 6; the survivor count (dose: 250.0 mg/kg/injection, schedule: Q01DX015 (ip), vehicle: methylcellulose (MC)) is 0 of 6.
Take `COC(=O)C1CC(O)CC(C(=O)OC)O1` (stereo not given): under setting [2], the survivor count was 2 of 6.
Turning to `COc1cc(NS(C)(=O)=O)ccc1Nc1c2ccccc2nc2cc(C(F)(F)F)c(N)cc12`, the T/C is 126 % of control (dose: 50.0 mg/kg/injection, schedule: Q04DX002 (ip), vehicle: Klucel (hydroxypropylcellulose) (HPC)); 130 and 144 % of control under setting [3]; 133 % of control under setting [4]; 138 % of control (dose: 200.0 mg/kg/injection, schedule: Q04DX003 (ip), vehicle: Klucel (hydroxypropylcellulose) (HPC)). In addition, the survivor count under setting [5] is on record as 5 of 6.
In the case of `O=N[O-].O=N[O-].[NH2-].[NH2-].[Pt+2]`, the survivor count is, setting by setting: under setting [3], 0 of 6; (dose: 200.0 mg/kg/injection, schedule: Q01DX009 (ip), vehicle: Klucel (hydroxypropylcellulose) (HPC)) 0 of 6; under setting [5], 0 of 6.
In the case of `Cc1ccc2nc(N=C(N)N)[nH]c2c1`, under setting [2], the survivor count is listed as 0 of 6.
As for `O=P(NC(=S)OCCN1CC1)(NC(=S)OCCN1CC1)NC(=S)OCCN1CC1`, the survivor count (dose: 400.0 mg/kg/injection, schedule: Q01DX001 (ip), vehicle: carboxymethylcellulose (CMC)) is listed as 1 of 6.
With `CNCC(=O)Nc1ccc(NC(=O)CNC)cc1`, the survivor count (dose: 400.0 mg/kg/injection, schedule: Q04DX002 (ip), vehicle: Klucel (hydroxypropylcellulose) (HPC)) was 0 of 3.
`COc1cc(C)oc(=O)c1`: the survivor count reads like this: (dose: 100.0 mg/kg/injection, schedule: Q01DX009 (ip), vehicle: saline with Tween-80) 6 of 6; (dose: 200.0 mg/kg/injection, schedule: Q01DX009 (ip), vehicle: saline with Tween-80) 6 of 6.
Take `O=C(Nc1cccc(S(=O)(=O)F)c1)Oc1ccc([N+](=O)[O-])cc1`: the survivor count is 1 of 3 (dose: 400.0 mg/kg/injection, schedule: Q01DX009 (ip), vehicle: saline with Tween-80) and 1 of 6 (dose: 400.0 mg/kg/injection, schedule: Q04DX003 (ip), vehicle: saline with Tween-80).
Turning to `O=S1(=O)CCCCC1Cl` (stereo not given), the survivor count (dose: 300.0 mg/kg/injection, schedule: Q04DX003 (ip), vehicle: other) is reported as 2 of 6.
In the case of `Clc1ccc2c(Cl)cc(Cl)nc2c1`, the survivor count (dose: 150.0 mg/kg/injection, schedule: Q01DX001 (ip), vehicle: saline) was 6 of 6.
With `CN=C(NCc1ccccc1)c1ccc(NC(=O)c2ccc(C(=O)Nc3ccc(C(=NC)NCc4ccccc4)cc3)c(Cl)c2)cc1`, the survivor count (dose: 16.0 mg/kg/injection, schedule: Q01DX Z (ip), vehicle: carboxymethylcellulose (CMC)) is 0 of 6.
As to `CCCC(C)CCCNCCOC(=O)c1cccc(N)c1` (stereo not given), where the note is “dose: 300.0 mg/kg/injection, schedule: Q01DX001 (ip), vehicle: other”, the survivor count is on record as 2 of 6.
On to `O=C(C[n+]1ccc2ccccc2c1)c1cccs1`, for which the T/C under setting [4] is 125 % of control [2 of 3 alive]. The survivor count (dose: 200.0 mg/kg/injection, schedule: Q04DX002 (ip), vehicle: Klucel (hydroxypropylcellulose) (HPC)) is given as 0 of 3.
In the case of `O=C(O)/C=C/C(=O)Nc1ccc2c(c1)Cc1cc(NC(=O)C(F)(F)F)ccc1-2`, the survivor count (dose: 400.0 mg/kg/injection, schedule: Q01DX001 (ip), vehicle: saline) is on record as 4 of 6.
On to `O=C(Nc1ccc(NC2=NCCN2)cc1)c1cccc(C(=O)Nc2ccc(NC3=NCCN3)cc2)c1`, for which the survivor count reads like this: (dose: 15.0 mg/kg/injection, schedule: Q01DX Z (ip), vehicle: methylcellulose (MC)) 5 of 6; (dose: 30.0 mg/kg/injection, schedule: Q01DX Z (ip), vehicle: methylcellulose (MC)) 1 of 6; (dose: 60.0 mg/kg/injection, schedule: Q01DX Z (ip), vehicle: methylcellulose (MC)) 0 of 6; (dose: 120.0 mg/kg/injection, schedule: Q01DX Z (ip), vehicle: methylcellulose (MC)) 0 of 6.
With `O=C(Nc1cc(C2=NCCN2)cc(C2=NCCN2)c1)Nc1cc(C2=NCCN2)cc(C2=NCCN2)c1`, the survivor count by setting is: (dose: 12.0 mg/kg/injection, schedule: Q01DX Z (ip), vehicle: water) 0 of 6; (dose: 25.0 mg/kg/injection, schedule: Q01DX Z (ip), vehicle: water) 0 of 6; (dose: 50.0 mg/kg/injection, schedule: Q01DX Z (ip), vehicle: water) 0 of 6; (dose: 100.0 mg/kg/injection, schedule: Q01DX Z (ip), vehicle: water) 0 of 6.
